# Measurements from article PMC7319964, “The MiDAC histone deacetylase complex is essential for embryonic development and has a unique multivalent structure” (Nature Communications, 2020).
# Chains of the proteins cited; added tags and fusions are not shown.
# UniProt Q13547: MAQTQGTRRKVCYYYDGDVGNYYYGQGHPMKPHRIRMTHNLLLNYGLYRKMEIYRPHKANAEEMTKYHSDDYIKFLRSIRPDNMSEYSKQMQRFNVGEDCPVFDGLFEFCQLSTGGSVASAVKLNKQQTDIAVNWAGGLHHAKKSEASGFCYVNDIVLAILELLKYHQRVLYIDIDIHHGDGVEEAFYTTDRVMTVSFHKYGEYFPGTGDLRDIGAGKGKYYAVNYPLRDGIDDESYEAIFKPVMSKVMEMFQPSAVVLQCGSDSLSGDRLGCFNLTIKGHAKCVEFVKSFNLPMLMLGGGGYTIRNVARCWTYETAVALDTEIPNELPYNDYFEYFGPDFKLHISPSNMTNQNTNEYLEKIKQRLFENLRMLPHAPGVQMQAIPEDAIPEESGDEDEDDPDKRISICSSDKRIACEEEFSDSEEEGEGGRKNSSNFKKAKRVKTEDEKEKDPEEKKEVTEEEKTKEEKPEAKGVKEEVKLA
# UniProt Q92769: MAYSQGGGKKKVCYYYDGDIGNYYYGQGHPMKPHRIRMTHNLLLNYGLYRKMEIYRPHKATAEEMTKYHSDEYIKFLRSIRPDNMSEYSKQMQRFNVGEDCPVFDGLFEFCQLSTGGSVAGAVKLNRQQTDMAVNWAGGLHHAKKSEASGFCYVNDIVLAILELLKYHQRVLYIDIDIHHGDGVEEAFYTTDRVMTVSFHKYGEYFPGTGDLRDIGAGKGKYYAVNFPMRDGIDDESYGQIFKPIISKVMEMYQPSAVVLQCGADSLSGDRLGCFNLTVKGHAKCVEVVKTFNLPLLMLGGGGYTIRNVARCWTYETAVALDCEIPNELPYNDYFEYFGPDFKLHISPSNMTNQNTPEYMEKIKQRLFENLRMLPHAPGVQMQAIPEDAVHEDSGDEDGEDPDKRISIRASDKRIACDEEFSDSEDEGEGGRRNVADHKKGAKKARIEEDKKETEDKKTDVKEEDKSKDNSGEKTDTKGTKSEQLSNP
# Results are given in words; binding and its absence hold for the method and conditions named. For part of these data: Binding seen in cells or lysates may run through a third protein. Some binding calls cover weakened binding; strength is not graded here. For part of these data: Sequences can lack the tags named with a protein.
# B1: DNTTIP1 (mouse) (protein, UniProt Q99LB0 1-328)
# chain: MGATGDTEQPRGPGGAERGGLELGDAGAAGQPVLTNPWNIMIKHRQVQRRGRRSQMTTSFTDPAISMDLLRAVLQPSINEEIQGVFNKYMKFFQKAALNVRDNVGEEVDAEQLIQEACRSCLEQAKLLFSDGEKVIPRLAHELPGIKRGRQAEEESHRGSPIPKKRKGRPPGHVLSNDRAAAGMVWKQKSCEPIRREGPKWDPARLNESTTFVLGSRANKALGMGGTRGRIYIKHPHLFKYAADPQDKHWLAEQHHMRATGGKMAYLLIEEDIRDLAASDDYRGCLDLKLEELKSFVLPSWMVEKMRKYMETLRTENEHRAAEAPPQT
# Key:
# [1] = molecular target: T1, MIDEAS (human (endogenous in U2OS)) (UniProt Q6PJG2); experiment: co-IP; U2OS lysates; rabbit anti-MIDEAS or rabbit anti-DNTTIP1 cross-linked to Dynabeads, 4 °C for 16 h; asynchronous cells and cells blocked 16 h in G1/S (aphidicolin 1.6 µg/ml) or M (nocodazole 3.3 µg/ml); mock IP with rabbit IgG; western blot
# T1 sequence: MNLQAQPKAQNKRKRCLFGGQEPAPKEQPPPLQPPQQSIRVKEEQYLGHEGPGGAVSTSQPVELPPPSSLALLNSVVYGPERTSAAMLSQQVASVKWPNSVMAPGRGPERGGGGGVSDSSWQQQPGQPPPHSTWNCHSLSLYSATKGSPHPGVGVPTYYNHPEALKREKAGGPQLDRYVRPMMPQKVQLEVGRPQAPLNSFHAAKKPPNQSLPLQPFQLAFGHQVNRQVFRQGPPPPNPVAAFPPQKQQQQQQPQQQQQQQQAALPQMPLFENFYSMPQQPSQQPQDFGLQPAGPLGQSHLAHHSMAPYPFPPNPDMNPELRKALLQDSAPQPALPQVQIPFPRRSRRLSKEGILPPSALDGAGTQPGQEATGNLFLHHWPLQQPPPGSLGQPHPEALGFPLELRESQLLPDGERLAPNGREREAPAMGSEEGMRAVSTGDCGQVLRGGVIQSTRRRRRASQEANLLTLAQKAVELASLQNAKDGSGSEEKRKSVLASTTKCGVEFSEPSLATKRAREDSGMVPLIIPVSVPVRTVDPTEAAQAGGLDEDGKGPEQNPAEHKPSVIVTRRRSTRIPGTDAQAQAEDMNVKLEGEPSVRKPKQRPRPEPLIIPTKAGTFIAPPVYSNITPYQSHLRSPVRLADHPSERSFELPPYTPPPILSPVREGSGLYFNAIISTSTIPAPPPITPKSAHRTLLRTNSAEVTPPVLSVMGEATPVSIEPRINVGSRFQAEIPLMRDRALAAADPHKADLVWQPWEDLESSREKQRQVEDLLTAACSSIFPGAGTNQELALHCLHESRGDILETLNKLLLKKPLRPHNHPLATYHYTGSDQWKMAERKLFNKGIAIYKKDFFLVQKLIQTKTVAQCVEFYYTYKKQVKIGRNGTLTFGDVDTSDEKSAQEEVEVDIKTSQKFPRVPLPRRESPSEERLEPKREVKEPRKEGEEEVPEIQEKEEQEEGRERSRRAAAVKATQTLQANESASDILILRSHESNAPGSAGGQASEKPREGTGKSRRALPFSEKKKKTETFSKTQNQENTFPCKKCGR
# [2] = molecular target: T2, DNTTIP1 (human (endogenous in U2OS)) (UniProt Q9H147); experiment: as above
# T2 sequence: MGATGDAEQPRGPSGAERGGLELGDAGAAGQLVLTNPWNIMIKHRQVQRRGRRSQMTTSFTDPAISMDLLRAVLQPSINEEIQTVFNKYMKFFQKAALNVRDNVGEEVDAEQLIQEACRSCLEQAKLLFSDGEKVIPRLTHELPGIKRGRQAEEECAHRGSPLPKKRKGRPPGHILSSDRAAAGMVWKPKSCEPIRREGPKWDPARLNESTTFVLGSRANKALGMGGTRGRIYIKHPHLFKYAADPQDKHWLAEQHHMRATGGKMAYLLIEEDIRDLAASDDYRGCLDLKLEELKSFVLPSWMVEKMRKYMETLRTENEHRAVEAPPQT
# [3] = molecular target: T3, ELM2-SANT domain from MIDEAS (UniProt Q6PJG2); experiment: cryo-EM structure; complex of HDAC1, MIDEAS ELM2-SANT and DNTTIP1 lacking the DNA-binding domain; 50 µM SAHA and 50 µM InsP6, glutaraldehyde cross-linked on ice; dimer map ~4 Å (C2) and tetramer map 4.5 Å (D2) from the same grids; both purified
# T3 sequence: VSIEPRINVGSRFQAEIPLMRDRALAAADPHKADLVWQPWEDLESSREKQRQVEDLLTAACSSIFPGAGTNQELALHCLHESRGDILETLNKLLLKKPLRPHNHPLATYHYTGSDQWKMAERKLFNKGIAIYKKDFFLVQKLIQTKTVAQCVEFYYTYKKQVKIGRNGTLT
# [4] = molecular target: T3, ELM2-SANT domain from MIDEAS; experiment: cryo-EM structure; complex with full-length DNTTIP1 including the DNA-binding domain; low-resolution maps (~23 Å without symmetry, 16 Å with mask and D2 symmetry); both purified
# [5] = molecular target: T4, MIDEAS-FLAG (mouse (endogenous in E14 ES cells)) (UniProt E9Q2I4); experiment: co-IP; anti-FLAG IP from MIDEAS-FLAG CRISPR mouse ES cells synchronised with 10 µM RO-3306 for 14 h, then nocodazole (30 ng/ml) for 2 h, harvested at time points after release; western blot
# T4 sequence: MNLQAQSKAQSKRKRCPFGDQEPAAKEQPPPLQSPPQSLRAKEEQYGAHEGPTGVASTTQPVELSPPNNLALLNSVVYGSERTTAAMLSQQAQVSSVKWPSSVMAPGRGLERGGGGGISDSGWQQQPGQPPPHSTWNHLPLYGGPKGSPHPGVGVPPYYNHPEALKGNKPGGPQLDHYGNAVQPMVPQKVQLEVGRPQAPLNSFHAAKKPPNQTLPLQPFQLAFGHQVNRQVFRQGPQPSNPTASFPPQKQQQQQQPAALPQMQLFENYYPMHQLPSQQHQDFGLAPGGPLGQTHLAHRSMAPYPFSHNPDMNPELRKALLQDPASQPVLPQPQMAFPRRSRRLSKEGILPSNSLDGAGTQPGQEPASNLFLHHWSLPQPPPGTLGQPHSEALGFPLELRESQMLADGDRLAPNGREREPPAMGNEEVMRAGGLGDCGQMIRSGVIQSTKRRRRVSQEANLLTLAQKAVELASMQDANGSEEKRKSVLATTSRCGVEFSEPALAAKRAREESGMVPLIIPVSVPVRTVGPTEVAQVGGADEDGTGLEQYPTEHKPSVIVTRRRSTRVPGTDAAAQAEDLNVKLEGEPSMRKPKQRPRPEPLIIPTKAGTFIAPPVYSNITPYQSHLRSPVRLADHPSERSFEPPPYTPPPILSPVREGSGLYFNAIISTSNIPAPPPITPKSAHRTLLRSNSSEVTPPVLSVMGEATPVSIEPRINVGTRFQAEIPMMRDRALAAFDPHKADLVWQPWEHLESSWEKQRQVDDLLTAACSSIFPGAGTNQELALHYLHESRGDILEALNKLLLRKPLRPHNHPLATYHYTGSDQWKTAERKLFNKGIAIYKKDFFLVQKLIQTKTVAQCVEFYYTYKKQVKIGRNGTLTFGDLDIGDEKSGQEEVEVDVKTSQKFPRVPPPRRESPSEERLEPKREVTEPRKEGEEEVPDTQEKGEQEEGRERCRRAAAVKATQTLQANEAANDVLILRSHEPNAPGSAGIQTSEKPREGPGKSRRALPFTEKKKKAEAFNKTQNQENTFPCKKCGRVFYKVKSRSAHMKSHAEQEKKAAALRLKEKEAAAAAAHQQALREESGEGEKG
molecule,measurement,setting,value
HDAC1 (from UniProt Q13547 1-482) (enzyme),binding,[1],binds
HDAC2 (from UniProt Q92769 1-488) (enzyme),binding,[2],binds
same,binding,[1],binds
full-length HDAC1 (from UniProt Q13547 1-482) (enzyme),binding,[3],binds
same,binding,[4],binds
B1,binding,[5],binds
